This is an account of results in article doi:10.1101/2025.06.23.660276.

No constants are given. Whether binding was seen depends on the method and setting. Binding seen in cells or lysates may run through a third protein. A yes stands for co-enrichment or nearness to the bait. Other partners may have been found.

For the assay, the target named is T1, TBP-TAP (C. albicans) (UniProt O43133).
T1 sequence: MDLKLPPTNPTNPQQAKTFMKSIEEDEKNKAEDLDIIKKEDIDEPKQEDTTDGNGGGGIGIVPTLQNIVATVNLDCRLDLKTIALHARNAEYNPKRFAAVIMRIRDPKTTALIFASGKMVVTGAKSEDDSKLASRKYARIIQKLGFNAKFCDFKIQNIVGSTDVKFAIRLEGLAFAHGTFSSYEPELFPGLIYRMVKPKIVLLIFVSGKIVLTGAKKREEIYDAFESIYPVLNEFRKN
The assay is described as follows: affinity purification with mass spectrometry; two-step TAP purification: IgG-Sepharose in TAP extraction buffer (350mM NaCl), TEV cleavage, calmodulin-Sepharose, EGTA elution; MudPIT; untagged SN87 as control.

B1: TAF12 (protein, UniProt Q5ADM2 1-515)
chain: MDSSAASSQEKRVGTSTPEAELNPHRAKALLAKFKEEMALAKAATDPQEREKHSELVEKIKRILIRYQEQQKQAKNNSPATKSNLTNQDSTTNTPSPLATNNNSATNVIEPKTETPDSTPMEQKPIQAPTPQHPNNASTSSATMSTTQFQPQPQPQQQTVTVEKYNHVKNTLKDMWKQVKTLEASSINETQTKKEEIDRKITELRNQMQKYHTAALRMKSKLIEQGTIPANSTPIGSPTPVSNTDPTPIANTTNTSNVTPPTEKAEENSKPNVKPPSTTTTTTSKSKPKPLSTTATNSTTKTSTPSKGSGSSKSNNRSSSQNTPGTSTSASATKTASVSTEKDAPLTATTSTSAVAPAAATVAATTAPTAAAAATSLSTASAITTKSTADPKVTPSNIPDNDGRVLTKRKLVEMINNISIDQGDAKIPIDNDVEDIFLDLADEFVRNVVQFSGRLAKHRKLDRIDVRDVQLNLERNWGLRIPGYSTDEIRAARKWQPEGEYAENVKKISKLNKDQ
As to B1, the binding entry is “binds”.
